Measured values: US9707273B2, “Peptides for use in the topical treatment of retinal neurodegenerative diseases, in particular in early stages of diabetic retinopathy and other retinal diseases in which neurodegeneration plays an essential role” (FUNDACIÓ HOSPITAL UNIVERSITARI VALL D'HEBRON—INSTITUT DE …, priority 2013, dated 2017)
At least one compound was matched to its structure with a doubt left.

What was measured:
Format in all cases: in vivo
C57BL/KsJ-db/db mice [1] = assay: Retinal apoptosis by TUNEL assay in diabetic mice after topical eye drops
C57BL/KsJ-db/db mice [2] = assay: Glutamate and GLAST immunofluorescence in whole neuroretina of diabetic mice after topical eye drops; conditions: FIG. 5
C57BL/KsJ-db/db mice [3] = assay: Glial activation (GFAP immunofluorescence, scoring system) in retina of diabetic mice after topical eye drops

## CCCCCCCCCCCCCCCC(=O)N[C@@H](CCC(=O)NCCCC[C@H](NC(=O)[C@H](C)NC(=O)[C@H](C)NC(=O)[C@H](CCC(N)=O)NC(=O)CNC(=O)[C@H](CCC(=O)O)NC(=O)[C@H](CC(C)C)NC(=O)[C@H](Cc1ccc(O)cc1)NC(=O)[C@H](CO)NC(=O)[C@H](CO)NC(=O)[C@@H](NC(=O)[C@H](CC(=O)O)NC(=O)[C@H](CO)NC(=O)[C@@H](NC(=O)[C@H](Cc1ccccc1)NC(=O)[C@@H](NC(=O)CNC(=O)[C@H](CCC(=O)O)NC(=O)[C@H](C)NC(=O)[C@@H](N)Cc1cnc[nH]1)[C@@H](C)O)[C@@H](C)O)C(C)C)C(=O)N[C@@H](CCC(=O)O)C(=O)N[C@@H](Cc1ccccc1)C(=O)N[C@H](C(=O)N[C@@H](C)C(=O)N[C@@H](Cc1c[nH]c2ccccc12)C(=O)N[C@@H](CC(C)C)C(=O)N[C@H](C(=O)N[C@@H](CCCNC(=N)N)C(=O)NCC(=O)N[C@@H](CCCNC(=N)N)C(=O)NCC(=O)O)C(C)C)[C@@H](C)CC)C(=O)O [liraglutide, Arg^34Lys^26(N^ε-(γ-glutamyl(N^α-hexadecanoyl)))-GLP-1 (7-37)]
C57BL/KsJ-db/db mice [1]; p<0.05
  ratio of apoptosis in the ganglion cell layer (TUNEL) versus diabetic mice treated with placebo: significantly lower
C57BL/KsJ-db/db mice [1]; similar to non-diabetic mice (p=n.s)
  TUNEL+ immunofluorescence intensity in whole neuroretina versus diabetic mice treated with vehicle: significantly lower
C57BL/KsJ-db/db mice [2]
  GLAST content: significant increase
  increase of glutamate levels caused by diabetes: abrogated
C57BL/KsJ-db/db mice [3]; eye drops 6 mg/ml once daily for 14 days, n = 10, GFAP score 1: Müller cell endfeet region/GCL only
  Glial activation score 1, quantification of glial activation in percentage: 58.5%
C57BL/KsJ-db/db mice [3]; eye drops 6 mg/ml once daily for 14 days, n = 10, GFAP score 2: endfeet region/GCL plus a few proximal processes
  Glial activation score 2, quantification of glial activation in percentage: 39.1%
C57BL/KsJ-db/db mice [3]; eye drops 6 mg/ml once daily for 14 days, n = 10, GFAP score 3: endfeet plus many processes, not extending to ONL
  Glial activation score 3, quantification of glial activation in percentage: 2.4%
C57BL/KsJ-db/db mice [3]; eye drops 6 mg/ml once daily for 14 days, n = 10, GFAP score 4: endfeet plus processes throughout with some in the ONL
  Glial activation score 4, quantification of glial activation in percentage: 0%
C57BL/KsJ-db/db mice [3]; eye drops 6 mg/ml once daily for 14 days, n = 10, GFAP score 5: endfeet plus lots of dark processes from GCL to outer margin of ONL
  Glial activation score 5, quantification of glial activation in percentage: 0%
C57BL/KsJ-db/db mice [3]; eye drops, p<0.05 vs vehicle, similar to non-diabetic mice (p=n.s)
  GFAP immunofluorescence score versus diabetic mice treated with vehicle: significantly lower
